Laboratory results from patent publication US9340505B2, “Type III secretion inhibitors, analogs and uses thereof” (priority 2007, dated 2016).
Some entries share one result that the patent states for a list of compounds. At least one structure is not confirmed: it was looked up by name or label, or the drawing left a doubt.

System: secretion of Yops
Assay type: cell-based, Y. pestis

Row | SMILES | inhibition of secretion of Yops (in words)
1 | Cl.O=C(Nc1cccc(C2=NCCN2)c1)Nc1cccc([N+](=O)[O-])c1 [compound 6, 1-(3-(4,5-dihydro-1H-imidazol-2-yl)phenyl)-3-(3-nitrophenyl)urea hydrochloride] | did not inhibit
2 | Cl.O=C(Nc1cccc(C2=NCCN2)c1)Nc1cccc(C(F)(F)F)c1 [compound 7] | did not inhibit
3 | Cl.O=C(Nc1cccc(Br)c1)Nc1cccc(C2=NCCN2)c1 [compound 8, 1-(3-bromophenyl)-3-(3-(4,5-dihydro-1H-imidazol-2-yl)phenyl)urea hydrochloride] | did not inhibit
